Laboratory results from the supplement of paper PMC7024190.
Structures can show the parent of a compound that is named as a salt. Some of the results follow. Repeats in this data set agree poorly, so a single value says little.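 Human embryonic kidney cells were transiently transfected with a plasmid bearing a Renilla luciferase gene under the HSV-TK promoter. This first-round screen tests roughly ten thousand compounds for ones that increase reporter output.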

test system: HEK 293FT; experiment: log relative Renilla luciferase luminescence (reporter expression vs reference, reference not stated) (log (base not stated)); higher = higher recombinant reporter expression; details: 10 µM; time after transfection 48 h

| Compound | log |
| --- | --- |
| COc1ccc(/C=C/C(=O)Nc2ccccc2C(=O)O)cc1OC | 0.0341 |
| CCN1CCC[C@H]1CNC(=O)c1cc(S(N)(=O)=O)ccc1OC | -0.0993 |
| CC[C@@H]1C(=O)OC[C@@H]1Cc1cncn1C | 0.233 |
| O=C(O[C@@H]1C[C@@H]2C[C@H]3C[C@H](C1)N2CC3=O)c1c[nH]c2ccccc12 | 0.171 |
| CC(C)/N=c1\cc2n(-c3ccc(Cl)cc3)c3ccccc3nc-2cc1Nc1ccc(Cl)cc1 | -0.0993 |
| CN1CCN(C2=Nc3ccccc3Oc3ccc(Cl)cc32)CC1 | 0.241 |
| O=C(O)C[C@H](O)C[C@H](O)/C=C/c1c(C2CC2)nc2ccccc2c1-c1ccc(F)cc1 | 0.0878 |
| O=C(O[C@H]1[C@H](Oc2ccccc2COC(=O)C2(O)C=CCCC2=O)O[C@H](CO)[C@@H](O)[C@@H]1O)c1ccccc1 (some centres undefined) | 0.239 |
| CC1(C)S[C@@H]2[C@H](/N=C/N3CCCCCC3)C(=O)N2[C@H]1C(=O)O | 0.033 |
| CN1C(C(=O)Nc2ccccn2)=C(O)c2ccccc2S1(=O)=O [Piroxicam] | -0.044 |
| C[N+]1(C)CCC(OC(=O)C(O)(c2ccccc2)C2CCCC2)C1 (centres undefined) | -0.0272 |
| CCc1oc2ccccc2c1C(=O)c1cc(Br)c(O)c(Br)c1 | -0.0265 |
| Cc1nccn1CC1CCc2c(c3ccccc3n2C)C1=O (centres undefined) | 0.0133 |
| C[C@H]1O[C@H](O[C@H]2[C@H](O)[C@@H](O)[C@@H](O[C@H]3[C@H](O)[C@@H](O)C(O)O[C@@H]3CO)O[C@@H]2CO)[C@H](O)[C@@H](O)[C@@H]1N[C@H]1C=C(CO)[C@@H](O)[C@H](O)[C@H]1O (some centres undefined) | -0.138 |
| CCCCCNC(=N)N/N=C/c1c[nH]c2ccc(OC)cc12 | -0.447 |
| CN(CCOc1ccc(NS(C)(=O)=O)cc1)CCc1ccc(NS(C)(=O)=O)cc1 | -0.108 |
| CN1CCN(c2c(F)cc3c(=O)c(C(=O)O)cn4c3c2SCC4)CC1 | -0.06 |
| CCC(C)n1ncn(-c2ccc(N3CCN(c4ccc(OCC5COC(Cn6cncn6)(c6ccc(Cl)cc6Cl)O5)cc4)CC3)cc2)c1=O (centres undefined) | -0.5 |
| C=C1/C(=C\C=C2/CCC[C@]3(C)[C@@H]([C@H](C)/C=C/[C@@H](O)C4CC4)CC[C@@H]23)C[C@@H](O)C[C@@H]1O | -0.0635 |
| CCc1c2c(nc3ccc(OC(=O)N4CCC(N5CCCCC5)CC4)cc13)-c1cc3c(c(=O)n1C2)COC(=O)[C@]3(O)CC [IRINOTECAN HCl )trihydrate)] | -0.826 |

| Compound | log |
| --- | --- |
| OCCOCCN1CCN(C2=Nc3ccccc3Sc3ccccc32)CC1 | -0.195 |
| Nc1c2c(nc3c1CCC3)CCCC2 | 0.0493 |
| C[C@H]1C[C@H]2[C@@H]3CCC4=CC(=O)C=C[C@]4(C)[C@@]3(Cl)[C@@H](O)C[C@]2(C)[C@@]1(O)C(=O)CO [Beclomethasone] | 0.0825 |
| CC(C)NCC(O)COc1ccc(CCOCC2CC2)cc1 (centres undefined) | -0.244 |
| O=C1[C@H]2CCCC[C@H]2C(=O)N1CCCCN1CCN(c2nsc3ccccc23)CC1 | 0.393 |
| Oc1ccc(/C=C/c2cc(O)cc(O)c2)cc1 | 0.158 |
| CCN1CCN(c2cc3c(cc2F)c(=O)c(C(=O)O)cn3C2CC2)CC1 | 0.162 |
| O=c1[nH]cnc2c1ncn2[C@H]1CC[C@@H](CO)O1 | -0.169 |
| COc1ccc2cc([C@H](C)C(=O)O)ccc2c1 | 0.0477 |
| COC(=O)Nc1nc2cc(C(=O)c3ccc(F)cc3)ccc2[nH]1 | 0.00632 |
| C=CC1=C(C(=O)O)N2C(=O)[C@@H](NC(=O)/C(=N\OCC(=O)O)c3csc(N)n3)[C@H]2SC1 | 0.118 |
| CCOC(=O)OC(C)OC1=C(C(=O)Nc2ccccn2)N(C)S(=O)(=O)c2ccccc21 (centres undefined) | 0.0965 |
| Nc1nc(O)c2ncn(CCC(CO)CO)c2n1 | -0.471 |
| O=C(CCNNC(=O)c1ccncc1)NCc1ccccc1 | 0.214 |
| Clc1cccc(Cl)c1NC1=NCCN1 | -0.368 |
| O=C1CCc2ccc(OCCCCN3CCN(c4cccc(Cl)c4Cl)CC3)cc2N1 | -1.48 |
| COc1ccccc1N1CCN(CCCNc2cc(=O)n(C)c(=O)n2C)CC1 | 0.244 |
| CC1=Nc2ccc(Cl)cc2S(=O)(=O)N1 | -0.162 |
| COCCCOc1ccnc(C[S+]([O-])c2nc3ccccc3[nH]2)c1C (centres undefined) | -0.0247 |

Quoted from the listing:
log with CC(C)NCC(O)COc1ccc(CCOCC2CC2)cc1 (centres undefined) is entered as -0.244
log with Oc1ccc(/C=C/c2cc(O)cc(O)c2)cc1 is entered as 0.158
